At least one compound was matched to its structure with a doubt left.
System: remnant and regenerated pancreatic tissue (beta cells)
Experiment: Pancreatic tissue regeneration, BrdU and insulin immunohistochemistry after 60% pancreatectomy
Assay type: in vivo, Sprague-Dawley rats
Conditions: per animal, 20 mg/kg p.o. x2, day 4 to 8, location of BrdU staining, exocrine (Ex) or regenerated (reg) tissue
Experimental: A 60% pancreatectomy was performed on a total of 12 male Sprague-Dawley rats. Vehicle and the DPP-IV inhibitor Val-Pyr was administered to 6 of these from day 4 to 8 in a dose of 20 mg/kg p.o. x2, while the remaining 6 rats were treated with vehicle alone.
The proliferation of beta cells was measured as incorporation of the thymidine analogue 5-bromo-2-deoxyuridine (BrdU) into DNA in insulin-positive cells. 8 days after the 60% pancreatectomy, 100 mg/kg BrdU was administered i.p. and 4 hours later the area containing remnant and regenerated pancreatic tissue was removed and processed for immunohistochemistry. Three adjacent sections from each animal were stained for insulin and BrdU. The amount of regenerated tissue was scored on the following range: −, (+), +, ++, +++. The location of BrDU was examined in regenerated pancreatic (reg) and exocrine (ex) tissue. Insulin staining was scored as weak (W), normal (N), and in regenerated tissue (+R).

CC(C)[C@H](N)C(=O)N1CCCC1 [Val-Pyr]
BrDU (+/−): −
